In patent US20240122932A1, “Methods of Treating B-Cell Malignancy Using Bcl-2 Inhibitor” (BeiGene Switzerland GmbH, priority 2021, published 2024):
At least one structure is not confirmed: it was looked up by name or label, or the drawing left a doubt.

Tested on: RS4;11 Bcl-2G101V KI acute lymphoblastic leukemia (ALL) subcutaneous xenograft
Assay: RS4;11 Bcl-2G101V KI ALL subcutaneous xenograft model
Format: in vivo, NCG mice
Conditions: 15, 50 and 100 mg/kg QD p.o.
Description: The RS4;11 Bcl-2G101V KI cells are of acute lymphoblastic leukemia (ALL) origin and were screened in house. Cells were grown in RPMI 1640 medium (Corning, Cat #10-040-CVR), supplemented with 10% (v/v) fetal bovine serum (Gibco, Cat #10099-141C), and 100 μg/mL of penicillin and streptomycin (Gibco, Cat #15140-122). […] Five to six-week-old female NCG mice were supplied by GemPharmatech Co., Ltd, Jiangsu, China. All animals were maintained under specific pathogen free (SPF) “full barrier” condition with free access to food and water. Mice were group-housed under a 12 h light:dark cycle (lights on at 08:00 h), at a temperature of 20-26° C. and 37-62% humidity in WC cages (Lingyunboji (Beijing) Technology Co., Ltd.). […]
Re-suspended cells were placed on ice prior to inoculation. […] After implantation, primary tumor volume was measured in two dimensions using a caliper.
Animals were randomly assigned into 7 groups with 8 mice per group according to body weight and tumor volume (around 300 mm^3). […] Body weight was assessed immediately before dosing and volume dosed was adjusted accordingly.
Individual body weight was recorded twice weekly, with mice being monitored daily for clinical signs of toxicity for the duration of the study. […]
Tumor volume was calculated using the formula: V=0.5×(a×b^2) where a and b are the long and short diameters of the tumor, respectively.

Q: For `CC1(C)CCC(CN2CCN(c3ccc(C(=O)NS(=O)(=O)c4ccc(NCC5CCOCC5)c([N+](=O)[O-])c4)c(Oc4cnc5[nH]ccc5c4)c3)CC2)=C(c2ccc(Cl)cc2)C1` [Venetoclax, reference compound], which “efficacy on tumor growth (in words)” value is on record?
A: marginal efficacy even at higher dose level
